{"source": "PubChem BioAssay AID1259254 (NCATS, 2017)", "test": "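Finding genes that stop cells copying their DNA twice in one cycle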 (primary screen)", "cell system": "human HCT116 colorectal cancer cells", "knock-down reagent": "single siRNA against human genes", "duration": "3 days", "read-out": "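Nuclei stained with Hoechst and imaged; cell-cycle phase assigned by DNA content; G2 share scaled per plate, non-targeting siRNA 0%, GMNN siRNA 100%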", "reading the numbers": "G2 robust z-score and G2 cells, % of GMNN control: higher = more G2 cells, more excess DNA replication", "call rule": "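An siRNA counts as active if its G2 robust z-score lies at least 5 MADs above the screen median; here such calls match roughly 38% of GMNN control or more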", "note": "Here is an unselected part of about 59,000 reagents. Over the whole deposit, about 1,550 (2.6%) got an active call. 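G2 share is only a proxy for re-replication; each gene was hit by three separate siRNAs, and active genes were retested.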 Not all columns of the deposit are shown. Not stated in the record: the amount of reagent."}
{"target gene": "MYCBP2", "PubChem SID": "SID160735393", "G2 robust z-score": -0.349, "G2 cells, % of GMNN control": 0.515, "activity call": "inactive"}
{"target gene": "MYCBP2", "PubChem SID": "SID160735394", "G2 robust z-score": 0.587, "G2 cells, % of GMNN control": 7.09, "activity call": "inactive"}
{"target gene": "MYCBP2", "PubChem SID": "SID160735395", "G2 robust z-score": -0.674, "G2 cells, % of GMNN control": -1.77, "activity call": "inactive"}
{"target gene": "DUSP6", "PubChem SID": "SID160757249", "G2 robust z-score": 0.601, "G2 cells, % of GMNN control": 7.2, "activity call": "inactive"}
{"target gene": "DUSP6", "PubChem SID": "SID160757260", "G2 robust z-score": -1.16, "G2 cells, % of GMNN control": -5.18, "activity call": "inactive"}
{"target gene": "DUSP6", "PubChem SID": "SID160757272", "G2 robust z-score": 0.408, "G2 cells, % of GMNN control": 5.84, "activity call": "inactive"}
{"target gene": "MAGEH1", "PubChem SID": "SID160738935", "G2 robust z-score": -0.822, "G2 cells, % of GMNN control": -2.82, "activity call": "inactive"}
{"target gene": "MAGEH1", "PubChem SID": "SID160738936", "G2 robust z-score": 0.119, "G2 cells, % of GMNN control": 3.8, "activity call": "inactive"}
{"target gene": "MAGEH1", "PubChem SID": "SID160738937", "G2 robust z-score": 0.0636, "G2 cells, % of GMNN control": 3.41, "activity call": "inactive"}
{"target gene": "SF3B5", "PubChem SID": "SID160735029", "G2 robust z-score": 1.31, "G2 cells, % of GMNN control": 12.2, "activity call": "inactive"}
{"target gene": "SF3B5", "PubChem SID": "SID160751110", "G2 robust z-score": -0.525, "G2 cells, % of GMNN control": -0.726, "activity call": "inactive"}
{"target gene": "SF3B5", "PubChem SID": "SID160751111", "G2 robust z-score": 0.31, "G2 cells, % of GMNN control": 5.15, "activity call": "inactive"}
{"target gene": "ATP5MJ", "PubChem SID": "SID160722496", "G2 robust z-score": 2.12, "G2 cells, % of GMNN control": 17.9, "activity call": "inactive"}
{"target gene": "ATP5MJ", "PubChem SID": "SID160722497", "G2 robust z-score": -0.202, "G2 cells, % of GMNN control": 1.55, "activity call": "inactive"}
{"target gene": "ATP5MJ", "PubChem SID": "SID160735235", "G2 robust z-score": -0.809, "G2 cells, % of GMNN control": -2.73, "activity call": "inactive"}

Reformatted: entries from further up
{"target gene":"DUSP6","PubChem SID":"SID160757260","G2 robust z-score":-1.16,"G2 cells, % of GMNN control":-5.18,"activity call":"inactive"}
{"target gene":"DUSP6","PubChem SID":"SID160757272","G2 robust z-score":0.408,"G2 cells, % of GMNN control":5.84,"activity call":"inactive"}

More reagents follow:
{"target gene": "ARL6IP6", "PubChem SID": "SID160732571", "G2 robust z-score": 1.5, "G2 cells, % of GMNN control": 13.5, "activity call": "inactive"}
{"target gene": "ARL6IP6", "PubChem SID": "SID160759061", "G2 robust z-score": -0.206, "G2 cells, % of GMNN control": 1.52, "activity call": "inactive"}
{"target gene": "ARL6IP6", "PubChem SID": "SID160759062", "G2 robust z-score": -0.38, "G2 cells, % of GMNN control": 0.295, "activity call": "inactive"}
{"target gene": "TAPT1", "PubChem SID": "SID160761043", "G2 robust z-score": 6.15, "G2 cells, % of GMNN control": 46.2, "activity call": "active"}
{"target gene": "TAPT1", "PubChem SID": "SID160761045", "G2 robust z-score": -0.555, "G2 cells, % of GMNN control": -0.941, "activity call": "inactive"}
{"target gene": "TAPT1", "PubChem SID": "SID160761046", "G2 robust z-score": -0.663, "G2 cells, % of GMNN control": -1.7, "activity call": "inactive"}
{"target gene": "ZBTB8A", "PubChem SID": "SID160728023", "G2 robust z-score": 3.06, "G2 cells, % of GMNN control": 24.5, "activity call": "inactive"}
{"target gene": "ZBTB8A", "PubChem SID": "SID160728024", "G2 robust z-score": -0.477, "G2 cells, % of GMNN control": -0.39, "activity call": "inactive"}
{"target gene": "ZBTB8A", "PubChem SID": "SID160728025", "G2 robust z-score": -0.546, "G2 cells, % of GMNN control": -0.872, "activity call": "inactive"}
{"target gene": "HEXIM1", "PubChem SID": "SID160728861", "G2 robust z-score": -0.747, "G2 cells, % of GMNN control": -2.29, "activity call": "inactive"}
{"target gene": "HEXIM1", "PubChem SID": "SID160728862", "G2 robust z-score": 5.28, "G2 cells, % of GMNN control": 40.1, "activity call": "active"}
{"target gene": "HEXIM1", "PubChem SID": "SID160728863", "G2 robust z-score": -0.593, "G2 cells, % of GMNN control": -1.2, "activity call": "inactive"}
{"target gene": "AGAP11", "PubChem SID": "SID160755703", "G2 robust z-score": -0.795, "G2 cells, % of GMNN control": -2.63, "activity call": "inactive"}
{"target gene": "AGAP11", "PubChem SID": "SID160755704", "G2 robust z-score": -0.875, "G2 cells, % of GMNN control": -3.19, "activity call": "inactive"}
{"target gene": "AGAP11", "PubChem SID": "SID160755706", "G2 robust z-score": -1.05, "G2 cells, % of GMNN control": -4.44, "activity call": "inactive"}
